Values quoted from earlier work, collected in patent US20100112174A1, “LOW CALORIE SWEETENER COMPOSITIONS” (CARGILL, INCORPORATED, priority 2006, published 2010).
At least one structure is not confirmed: it was looked up by name or label, or the drawing left a doubt.

Conditions: cited from earlier work

Structure (SMILES): OC[C@@H](O)[C@@H](O[C@H]1O[C@H](CO)[C@@H](O)[C@H](O)[C@H]1O)[C@H](O)[C@@H](O)CO [COMP. SWEETENER A, Maltitol]
- sweetness level relative to sucrose (sugar): about 90%
